In patent US6527981B1, “Azole/amine oxide preservatives” (Lonza Inc., priority 1999, dated 2003):

Test: corrosivity on low carbon steel coupon
Details: room temperature, 1% by weight

Didecyldimethyl ammonium carbonate [didecyl dimethyl ammonium carbonate]
No Corrosion: Observation after 14 Days | Observation after 24 Days | Observation after 24 hours
